{"source": "PubChem BioAssay AID504764 (Drosophila RNAi Screening Center, 2011)", "assay": "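Genes whose knock-down alters Notch-dependent transcription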 (primary screen)", "cells": "Drosophila Kc167 cells", "reagents": "long dsRNA against Drosophila genes", "duration": "about 5 days (4 days dsRNA, then 24 h after transfection)", "challenge": "transfection of constitutively active membrane-tethered Notch lacking the extracellular domain, read 24 h later", "detection": "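Light from a Notch-responsive E(spl)m3 luciferase reporter under active Notch, with control-promoter and no-Notch reporter wells to normalise; raw counts from paired wells a and b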", "scale": "induced reporter light, run 1, well a and induced reporter light, run 1, well b: higher = more light from the Notch target reporter with active Notch; control promoter light, run 1, well a and control promoter light, run 1, well b: higher = more light from the viral control promoter (cell number, transfection, viability); uninduced reporter light, run 1, well a: higher = more light from the Notch target reporter without active Notch", "active means": "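Wells with low control signal or poorly matching duplicates excluded; duplicates averaged; per source plate, z beyond ±2 for induced/control log2 ratio or beyond ±1.8 for induced/uninduced marks a hit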", "calls": "active = modifier hit (raised or lowered Notch signal); inactive = not a hit", "note": "In all, the deposit lists about 22,000 reagents; this is a random part of those with a known target gene and a result. Of all reagents, 403 (1.9%) got an active call. 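Unnormalised raw counts per well; ratio z-scores behind the hit calls and whether each hit raises or lowers signal are not deposited.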 Not stated in the record: the amount of reagent."}
{"target":"Stim","dsRNA":"DRSC20158","induced reporter light, run 1, well a":1.84e5,"induced reporter light, run 1, well b":2.07e5,"control promoter light, run 1, well a":2.22e5,"control promoter light, run 1, well b":2.05e5,"uninduced reporter light, run 1, well a":14270,"Call":"inactive"}
{"target":"CG34248","dsRNA":"DRSC09426","induced reporter light, run 1, well a":1.89e5,"induced reporter light, run 1, well b":1.69e5,"control promoter light, run 1, well a":2.63e5,"control promoter light, run 1, well b":3.04e5,"uninduced reporter light, run 1, well a":20395,"Call":"inactive"}
{"target":"IntS10","dsRNA":"DRSC08173","induced reporter light, run 1, well a":1.87e5,"induced reporter light, run 1, well b":1.63e5,"control promoter light, run 1, well a":2.62e5,"control promoter light, run 1, well b":2.73e5,"uninduced reporter light, run 1, well a":12125,"Call":"inactive"}
{"target":"CG3513","dsRNA":"DRSC00608","induced reporter light, run 1, well a":1.73e5,"induced reporter light, run 1, well b":1.55e5,"control promoter light, run 1, well a":1.93e5,"control promoter light, run 1, well b":1.55e5,"uninduced reporter light, run 1, well a":8550,"Call":"inactive"}
{"target":"CG8646","dsRNA":"DRSC07230","induced reporter light, run 1, well a":89130,"induced reporter light, run 1, well b":89695,"control promoter light, run 1, well a":1.59e5,"control promoter light, run 1, well b":1.05e5,"uninduced reporter light, run 1, well a":10600,"Call":"inactive"}
{"target":"CG15233","dsRNA":"DRSC04967","induced reporter light, run 1, well a":1.58e5,"induced reporter light, run 1, well b":1.63e5,"control promoter light, run 1, well a":1.91e5,"control promoter light, run 1, well b":1.61e5,"uninduced reporter light, run 1, well a":13900,"Call":"inactive"}
{"target":"CG30054","dsRNA":"DRSC05354","induced reporter light, run 1, well a":1.65e5,"induced reporter light, run 1, well b":1.53e5,"control promoter light, run 1, well a":2.43e5,"control promoter light, run 1, well b":3.10e5,"uninduced reporter light, run 1, well a":17100,"Call":"inactive"}
{"target":"Rpn9","dsRNA":"DRSC16840","induced reporter light, run 1, well a":900,"induced reporter light, run 1, well b":855,"control promoter light, run 1, well a":732,"control promoter light, run 1, well b":878,"uninduced reporter light, run 1, well a":95,"Call":"inactive"}
{"target":"CG14835","dsRNA":"DRSC10205","induced reporter light, run 1, well a":1.47e5,"induced reporter light, run 1, well b":1.48e5,"control promoter light, run 1, well a":1.84e5,"control promoter light, run 1, well b":1.61e5,"uninduced reporter light, run 1, well a":6990,"Call":"inactive"}
{"target":"CG13243","dsRNA":"DRSC01920","induced reporter light, run 1, well a":1.65e5,"induced reporter light, run 1, well b":1.97e5,"control promoter light, run 1, well a":1.88e5,"control promoter light, run 1, well b":2.18e5,"uninduced reporter light, run 1, well a":13300,"Call":"inactive"}
{"target":"CG14551","dsRNA":"DRSC14894","induced reporter light, run 1, well a":1.25e5,"induced reporter light, run 1, well b":1.22e5,"control promoter light, run 1, well a":1.78e5,"control promoter light, run 1, well b":1.58e5,"uninduced reporter light, run 1, well a":10585,"Call":"inactive"}
{"target":"dao","dsRNA":"DRSC01960","induced reporter light, run 1, well a":1.08e5,"induced reporter light, run 1, well b":1.42e5,"control promoter light, run 1, well a":1.27e5,"control promoter light, run 1, well b":1.21e5,"uninduced reporter light, run 1, well a":8470,"Call":"inactive"}

Quoted from the listing, 2 entries:
{"target":"CG14551","dsRNA":"DRSC14894","induced reporter light, run 1, well a":1.25e5,"induced reporter light, run 1, well b":1.22e5,"control promoter light, run 1, well a":1.78e5,"control promoter light, run 1, well b":1.58e5,"uninduced reporter light, run 1, well a":10585,"Call":"inactive"}
{"target":"dao","dsRNA":"DRSC01960","induced reporter light, run 1, well a":1.08e5,"induced reporter light, run 1, well b":1.42e5,"control promoter light, run 1, well a":1.27e5,"control promoter light, run 1, well b":1.21e5,"uninduced reporter light, run 1, well a":8470,"Call":"inactive"}
